These are yes or no findings as the source states them, for the method shown. Binding seen in cells or lysates may run through a third protein. Some results given as binding are weak or reduced against the parent protein; the word gives no strength. For part of these data: Tags and fused reporters may be left off the sequences shown.

Amino acid sequences for entries named in this document (tags omitted). A change or cut given only in a name is not applied to a line headed by its entry. Chains listed by the source or under a name are the forms on record and can include a tag or linker.
UniProt Q86WV6: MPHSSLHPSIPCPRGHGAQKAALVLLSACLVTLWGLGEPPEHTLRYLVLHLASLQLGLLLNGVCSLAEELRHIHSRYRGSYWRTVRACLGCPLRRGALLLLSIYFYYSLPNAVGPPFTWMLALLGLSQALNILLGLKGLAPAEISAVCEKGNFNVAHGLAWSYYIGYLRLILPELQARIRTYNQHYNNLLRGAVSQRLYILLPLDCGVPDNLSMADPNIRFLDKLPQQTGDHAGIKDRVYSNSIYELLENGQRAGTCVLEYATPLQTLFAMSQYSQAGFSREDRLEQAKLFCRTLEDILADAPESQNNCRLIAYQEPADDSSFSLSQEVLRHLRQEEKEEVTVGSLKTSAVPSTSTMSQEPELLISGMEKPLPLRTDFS
ZAPS (ZC3HAV1 short isoform), endogenous in THP-1 cells (Q7Z2W4-2, form named): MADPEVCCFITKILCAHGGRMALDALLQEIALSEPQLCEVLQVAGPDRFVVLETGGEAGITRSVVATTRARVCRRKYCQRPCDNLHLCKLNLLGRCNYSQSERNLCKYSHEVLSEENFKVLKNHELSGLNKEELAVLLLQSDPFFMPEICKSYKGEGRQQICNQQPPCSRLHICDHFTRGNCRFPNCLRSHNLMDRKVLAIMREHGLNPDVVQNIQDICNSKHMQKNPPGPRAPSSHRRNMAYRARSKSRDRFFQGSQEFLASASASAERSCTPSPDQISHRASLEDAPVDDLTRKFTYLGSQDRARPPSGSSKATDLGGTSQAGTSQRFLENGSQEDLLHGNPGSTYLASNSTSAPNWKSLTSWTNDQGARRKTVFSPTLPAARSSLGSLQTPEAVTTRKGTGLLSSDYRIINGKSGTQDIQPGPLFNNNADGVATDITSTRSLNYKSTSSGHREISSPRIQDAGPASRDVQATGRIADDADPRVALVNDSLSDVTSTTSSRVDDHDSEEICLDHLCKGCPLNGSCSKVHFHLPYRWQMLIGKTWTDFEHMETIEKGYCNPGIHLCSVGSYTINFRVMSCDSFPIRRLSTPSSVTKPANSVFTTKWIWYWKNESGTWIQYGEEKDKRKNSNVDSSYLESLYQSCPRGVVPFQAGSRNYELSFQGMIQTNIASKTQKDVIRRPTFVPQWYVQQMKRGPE

For test [1], the target named is T1, Myc-tagged STING (UniProt Q3TBT3).
T1 sequence: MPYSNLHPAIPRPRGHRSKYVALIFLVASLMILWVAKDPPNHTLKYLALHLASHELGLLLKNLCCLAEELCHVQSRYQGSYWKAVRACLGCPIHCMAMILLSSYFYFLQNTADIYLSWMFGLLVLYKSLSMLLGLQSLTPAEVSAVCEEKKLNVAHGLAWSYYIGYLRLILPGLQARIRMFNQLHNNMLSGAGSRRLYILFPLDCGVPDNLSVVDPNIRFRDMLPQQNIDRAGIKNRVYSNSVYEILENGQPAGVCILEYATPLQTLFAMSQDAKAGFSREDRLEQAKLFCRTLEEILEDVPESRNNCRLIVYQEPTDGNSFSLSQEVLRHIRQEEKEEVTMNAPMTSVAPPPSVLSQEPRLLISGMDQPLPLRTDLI
The test can be described thus: co-IP; HEK293T cells transfected with tagged plasmids; IP buffer 1.0% Nonidet P 40, 50 mM Tris-HCl pH 7.4, 50 mM EDTA, 150 mM NaCl.

Test [2] deals with Stimulator of interferon genes (STING), endogenous in THP-1 cells (human (endogenous in THP-1)) (UniProt Q86WV6). The test can be described thus: co-IP; endogenous proteins in THP-1 cells, resting or stimulated with ISD; IP buffer 1.0% Nonidet P 40, 50 mM Tris-HCl pH 7.4, 50 mM EDTA, 150 mM NaCl.

As to “Flag-tagged ZAPS (from UniProt Q7Z2W4-2 1-699)”, in test [1], the binding entry is listed as “binds”.
Turning to “ZAPL (ZC3HAV1 long isoform), endogenous in THP-1 cells (from UniProt Q7Z2W4-1 1-902)”, in test [2], the binding entry was “binds”.
The same measure, in the same setting: the value for “ZAPS (ZC3HAV1 short isoform), endogenous in THP-1 cells (from UniProt Q7Z2W4-2 1-699)” was “binds”.

(Values after article PMC11526107.)
